Measured values reported in publication PMC3587578.
Results are given in words; binding and its absence hold for the method and conditions named. Binding seen in cells or lysates may run through a third protein. Some results given as binding are weak or reduced against the parent protein; the word gives no strength.

The chains behind the UniProt entries cited, without tags or fusion partners.
UniProt P03165: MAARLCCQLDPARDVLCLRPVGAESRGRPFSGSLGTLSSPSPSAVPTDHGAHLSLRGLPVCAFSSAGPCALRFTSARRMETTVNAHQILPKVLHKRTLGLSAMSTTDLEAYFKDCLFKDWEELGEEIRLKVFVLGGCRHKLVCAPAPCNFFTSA
UniProt Q9Y6K9: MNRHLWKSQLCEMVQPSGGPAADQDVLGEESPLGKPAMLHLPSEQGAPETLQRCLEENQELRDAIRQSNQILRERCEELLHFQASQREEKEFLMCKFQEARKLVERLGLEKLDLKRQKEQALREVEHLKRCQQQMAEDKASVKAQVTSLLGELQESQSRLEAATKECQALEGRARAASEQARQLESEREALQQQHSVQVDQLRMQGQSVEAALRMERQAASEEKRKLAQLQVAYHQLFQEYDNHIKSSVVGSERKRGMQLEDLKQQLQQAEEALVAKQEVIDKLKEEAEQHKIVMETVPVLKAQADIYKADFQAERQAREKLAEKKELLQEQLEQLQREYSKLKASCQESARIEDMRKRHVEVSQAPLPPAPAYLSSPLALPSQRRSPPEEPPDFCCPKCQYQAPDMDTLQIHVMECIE

Tests used:
[1] = target: HBx-HA (hepatitis B virus X protein, subtype ayw) (hepatitis B virus (subtype ayw)) (UniProt P03165); assay: co-IP
[2] = target: endogenous NEMO (human (endogenous in Huh7)) (UniProt Q9Y6K9); assay: co-IP; about 7.8×10^6 Huh7 cells transfected with wt HBV1.2mer, 72 h; lysates immunoprecipitated with anti-NEMO antibody; blotted with anti-NEMO, anti-Flip and anti-HBx
[3] = target: NEMO-FLAG (UniProt Q9Y6K9); assay: co-IP

## NEMO-FLAG (from UniProt Q9Y6K9 1-419)
[1]
  binding: binds

## genome-driven HBx (expressed from the replication-competent wt HBV1.2mer) (from UniProt P03165 1-154)
[2]
  binding: binds

## HBx-HA (hepatitis B virus X protein, subtype ayw) (from UniProt P03165 1-154)
[3]
  binding: binds
